No constants are given. Whether binding was seen depends on the method and setting. Binding seen in cells or lysates may run through a third protein. Some entries that bind do so weakly or less than the wild type. Sequences can lack the tags named with a protein.
Assays:
[1] = molecular target: T1, HA-FOXR2 (forkhead box R2) (human) (UniProt Q6PJQ5); experiment: co-IP; 293T cells co-transfected with HA-FOXR2/SRF and Myc-EPC1/EPC2, collected 36 to 48 h after transfection; cell extracts incubated with anti-HA-Tag antibody-conjugated agarose beads for 4 h at 4°C, beads washed with PBS, Western blot
T1 sequence: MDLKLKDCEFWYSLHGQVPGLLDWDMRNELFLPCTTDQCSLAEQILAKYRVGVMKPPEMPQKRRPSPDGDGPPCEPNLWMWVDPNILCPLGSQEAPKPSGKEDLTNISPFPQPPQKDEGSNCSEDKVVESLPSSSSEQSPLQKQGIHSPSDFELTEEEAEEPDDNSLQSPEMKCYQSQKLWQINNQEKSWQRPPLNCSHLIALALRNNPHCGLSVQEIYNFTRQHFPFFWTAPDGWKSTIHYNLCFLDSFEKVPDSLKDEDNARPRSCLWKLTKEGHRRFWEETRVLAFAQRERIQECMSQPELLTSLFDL

Amino acid sequences for entries named in this document (tags omitted).
UniProt Q9H2F5: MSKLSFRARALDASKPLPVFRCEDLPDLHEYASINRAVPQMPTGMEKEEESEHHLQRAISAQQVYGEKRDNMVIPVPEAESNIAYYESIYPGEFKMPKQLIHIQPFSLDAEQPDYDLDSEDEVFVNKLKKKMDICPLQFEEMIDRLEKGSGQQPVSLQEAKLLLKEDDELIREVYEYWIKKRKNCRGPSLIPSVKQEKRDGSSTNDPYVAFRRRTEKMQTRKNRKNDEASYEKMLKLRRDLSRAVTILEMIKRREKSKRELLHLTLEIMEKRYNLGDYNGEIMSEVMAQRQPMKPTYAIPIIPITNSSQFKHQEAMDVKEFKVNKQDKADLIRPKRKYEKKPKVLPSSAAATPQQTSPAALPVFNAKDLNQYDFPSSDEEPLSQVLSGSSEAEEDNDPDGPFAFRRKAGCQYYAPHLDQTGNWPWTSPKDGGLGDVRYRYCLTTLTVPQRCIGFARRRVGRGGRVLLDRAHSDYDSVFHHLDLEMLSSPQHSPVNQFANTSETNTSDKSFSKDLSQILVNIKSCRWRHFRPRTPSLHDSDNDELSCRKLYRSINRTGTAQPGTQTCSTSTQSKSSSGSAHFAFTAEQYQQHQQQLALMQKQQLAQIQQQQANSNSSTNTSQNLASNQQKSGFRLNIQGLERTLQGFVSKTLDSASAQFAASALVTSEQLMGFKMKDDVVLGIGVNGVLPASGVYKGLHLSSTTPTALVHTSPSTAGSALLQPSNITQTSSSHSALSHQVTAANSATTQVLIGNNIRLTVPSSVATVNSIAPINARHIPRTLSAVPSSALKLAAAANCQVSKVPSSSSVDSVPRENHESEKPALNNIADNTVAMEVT
UniProt Q52LR7: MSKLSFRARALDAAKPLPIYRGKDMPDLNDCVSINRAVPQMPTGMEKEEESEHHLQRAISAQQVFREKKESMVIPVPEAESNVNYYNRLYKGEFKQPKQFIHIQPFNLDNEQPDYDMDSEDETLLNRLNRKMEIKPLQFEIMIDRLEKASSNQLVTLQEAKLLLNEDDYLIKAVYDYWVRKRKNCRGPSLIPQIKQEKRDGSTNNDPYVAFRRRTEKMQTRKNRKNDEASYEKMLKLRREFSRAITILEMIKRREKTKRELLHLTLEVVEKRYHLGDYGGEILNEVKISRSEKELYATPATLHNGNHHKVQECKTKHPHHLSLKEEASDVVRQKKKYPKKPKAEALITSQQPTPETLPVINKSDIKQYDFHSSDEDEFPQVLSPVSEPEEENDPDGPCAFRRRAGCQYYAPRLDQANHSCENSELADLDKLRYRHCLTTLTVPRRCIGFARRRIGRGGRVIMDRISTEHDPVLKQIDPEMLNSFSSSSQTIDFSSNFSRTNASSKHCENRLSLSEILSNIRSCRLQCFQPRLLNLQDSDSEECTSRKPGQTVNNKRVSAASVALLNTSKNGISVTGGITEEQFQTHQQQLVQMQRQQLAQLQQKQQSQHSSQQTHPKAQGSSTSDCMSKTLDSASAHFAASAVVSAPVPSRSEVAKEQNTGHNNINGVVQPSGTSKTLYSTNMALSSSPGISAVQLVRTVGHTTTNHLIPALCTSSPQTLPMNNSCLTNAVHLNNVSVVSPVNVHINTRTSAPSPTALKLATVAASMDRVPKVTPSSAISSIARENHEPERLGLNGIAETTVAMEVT

[2] = molecular target: T2, HA-SRF (serum response factor) (human) (UniProt P11831); experiment: as above
T2 sequence: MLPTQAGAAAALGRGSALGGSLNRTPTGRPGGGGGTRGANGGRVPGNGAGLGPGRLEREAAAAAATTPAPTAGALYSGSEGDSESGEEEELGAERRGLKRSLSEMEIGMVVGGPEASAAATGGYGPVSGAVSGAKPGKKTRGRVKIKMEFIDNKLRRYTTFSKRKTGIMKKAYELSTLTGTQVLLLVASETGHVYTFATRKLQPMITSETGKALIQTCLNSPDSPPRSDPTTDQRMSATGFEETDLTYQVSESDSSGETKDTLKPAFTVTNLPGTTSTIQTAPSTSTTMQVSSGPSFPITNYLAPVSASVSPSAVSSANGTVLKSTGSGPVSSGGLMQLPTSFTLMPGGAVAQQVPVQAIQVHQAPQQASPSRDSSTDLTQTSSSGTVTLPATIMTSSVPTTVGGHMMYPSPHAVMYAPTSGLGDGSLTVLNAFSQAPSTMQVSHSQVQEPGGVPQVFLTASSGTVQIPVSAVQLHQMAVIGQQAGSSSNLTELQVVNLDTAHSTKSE

binding [1] | binding [2] | Substance
binds | binds | Myc-EPC1 (enhancer of polycomb 1) (from UniProt Q9H2F5 1-836)
binds | binds | Myc-EPC2 (enhancer of polycomb 2) (from UniProt Q52LR7 1-807)

Source: publication PMC10910311
